log2 fold change data for 11 targets are collected here from the supplement of paper PMC12819154, “High-throughput peptide-centric local stability assay extends protein–ligand identification to membrane proteins, tissues and bacteria” (Nature Structural & Molecular Biology, 2025).

Chains of the proteins cited; added tags and fusions are not shown. Lines headed by an entry give the natural chain unless they say otherwise; changes in a name come on top.
UniProt Q8NDB6: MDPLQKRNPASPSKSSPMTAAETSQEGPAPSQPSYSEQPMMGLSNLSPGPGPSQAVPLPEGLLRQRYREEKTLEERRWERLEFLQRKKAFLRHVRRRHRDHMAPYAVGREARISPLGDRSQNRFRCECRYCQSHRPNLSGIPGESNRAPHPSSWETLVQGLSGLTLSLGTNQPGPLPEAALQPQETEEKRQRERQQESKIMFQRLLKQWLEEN
UniProt Q8NDX6: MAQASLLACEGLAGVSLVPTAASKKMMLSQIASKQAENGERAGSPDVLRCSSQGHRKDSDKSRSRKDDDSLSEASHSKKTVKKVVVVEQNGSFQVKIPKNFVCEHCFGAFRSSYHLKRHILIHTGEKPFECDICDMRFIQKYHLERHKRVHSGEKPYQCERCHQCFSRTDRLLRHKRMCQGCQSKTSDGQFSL
UniProt Q8NA31: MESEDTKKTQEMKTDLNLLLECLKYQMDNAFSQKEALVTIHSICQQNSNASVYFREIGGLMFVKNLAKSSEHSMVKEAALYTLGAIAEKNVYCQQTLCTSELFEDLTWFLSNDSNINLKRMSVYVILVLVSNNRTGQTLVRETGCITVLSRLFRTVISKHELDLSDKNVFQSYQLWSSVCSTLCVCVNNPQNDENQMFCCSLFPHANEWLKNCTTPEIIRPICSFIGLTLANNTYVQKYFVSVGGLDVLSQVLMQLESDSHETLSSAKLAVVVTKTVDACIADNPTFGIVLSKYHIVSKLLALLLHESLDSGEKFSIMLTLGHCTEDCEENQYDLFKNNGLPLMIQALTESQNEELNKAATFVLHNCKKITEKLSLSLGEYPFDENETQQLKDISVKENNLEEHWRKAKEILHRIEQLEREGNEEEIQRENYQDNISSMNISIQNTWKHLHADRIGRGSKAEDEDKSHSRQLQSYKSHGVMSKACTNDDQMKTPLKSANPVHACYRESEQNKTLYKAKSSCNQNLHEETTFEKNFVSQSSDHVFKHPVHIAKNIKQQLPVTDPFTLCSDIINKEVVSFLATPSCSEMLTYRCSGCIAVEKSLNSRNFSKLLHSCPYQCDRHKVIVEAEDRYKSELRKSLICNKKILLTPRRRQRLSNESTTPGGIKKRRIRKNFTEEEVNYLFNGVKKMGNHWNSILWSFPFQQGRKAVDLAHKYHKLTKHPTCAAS
UniProt Q8NC56: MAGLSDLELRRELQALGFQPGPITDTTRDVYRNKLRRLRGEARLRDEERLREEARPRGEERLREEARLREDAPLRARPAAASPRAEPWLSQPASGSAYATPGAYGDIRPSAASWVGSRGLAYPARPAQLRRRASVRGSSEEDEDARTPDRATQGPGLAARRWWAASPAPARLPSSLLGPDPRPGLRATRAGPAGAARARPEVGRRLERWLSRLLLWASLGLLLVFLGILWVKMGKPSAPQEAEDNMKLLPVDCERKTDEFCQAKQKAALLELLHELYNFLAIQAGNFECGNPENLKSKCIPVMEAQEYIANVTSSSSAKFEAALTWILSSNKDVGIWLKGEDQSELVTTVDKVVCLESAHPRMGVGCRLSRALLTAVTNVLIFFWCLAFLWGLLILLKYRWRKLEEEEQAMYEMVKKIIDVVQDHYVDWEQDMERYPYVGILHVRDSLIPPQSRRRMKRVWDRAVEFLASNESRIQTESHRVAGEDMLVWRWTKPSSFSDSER
UniProt Q8NI36: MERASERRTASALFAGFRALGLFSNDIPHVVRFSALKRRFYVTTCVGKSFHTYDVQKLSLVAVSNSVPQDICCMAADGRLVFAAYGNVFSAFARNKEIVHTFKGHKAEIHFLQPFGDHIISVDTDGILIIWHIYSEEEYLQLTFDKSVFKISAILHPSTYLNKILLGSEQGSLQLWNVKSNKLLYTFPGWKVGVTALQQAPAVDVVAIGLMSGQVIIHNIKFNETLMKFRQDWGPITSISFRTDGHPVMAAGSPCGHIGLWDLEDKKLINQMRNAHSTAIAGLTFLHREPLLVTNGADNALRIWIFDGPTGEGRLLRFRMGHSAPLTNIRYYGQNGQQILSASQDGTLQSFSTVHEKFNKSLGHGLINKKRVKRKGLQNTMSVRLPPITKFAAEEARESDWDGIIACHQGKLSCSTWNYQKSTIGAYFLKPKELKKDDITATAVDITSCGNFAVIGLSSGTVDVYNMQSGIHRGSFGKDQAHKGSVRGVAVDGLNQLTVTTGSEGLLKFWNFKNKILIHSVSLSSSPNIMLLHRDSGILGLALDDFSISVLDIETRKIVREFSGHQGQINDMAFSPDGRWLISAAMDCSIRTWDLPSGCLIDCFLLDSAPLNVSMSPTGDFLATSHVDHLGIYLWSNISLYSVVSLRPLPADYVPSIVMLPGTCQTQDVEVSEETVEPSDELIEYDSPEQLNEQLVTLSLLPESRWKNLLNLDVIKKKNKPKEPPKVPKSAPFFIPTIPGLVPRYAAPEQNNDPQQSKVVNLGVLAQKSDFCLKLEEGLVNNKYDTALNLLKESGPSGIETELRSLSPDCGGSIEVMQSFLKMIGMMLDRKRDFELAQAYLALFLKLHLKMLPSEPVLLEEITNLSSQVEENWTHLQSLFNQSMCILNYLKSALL
UniProt Q8NEN9: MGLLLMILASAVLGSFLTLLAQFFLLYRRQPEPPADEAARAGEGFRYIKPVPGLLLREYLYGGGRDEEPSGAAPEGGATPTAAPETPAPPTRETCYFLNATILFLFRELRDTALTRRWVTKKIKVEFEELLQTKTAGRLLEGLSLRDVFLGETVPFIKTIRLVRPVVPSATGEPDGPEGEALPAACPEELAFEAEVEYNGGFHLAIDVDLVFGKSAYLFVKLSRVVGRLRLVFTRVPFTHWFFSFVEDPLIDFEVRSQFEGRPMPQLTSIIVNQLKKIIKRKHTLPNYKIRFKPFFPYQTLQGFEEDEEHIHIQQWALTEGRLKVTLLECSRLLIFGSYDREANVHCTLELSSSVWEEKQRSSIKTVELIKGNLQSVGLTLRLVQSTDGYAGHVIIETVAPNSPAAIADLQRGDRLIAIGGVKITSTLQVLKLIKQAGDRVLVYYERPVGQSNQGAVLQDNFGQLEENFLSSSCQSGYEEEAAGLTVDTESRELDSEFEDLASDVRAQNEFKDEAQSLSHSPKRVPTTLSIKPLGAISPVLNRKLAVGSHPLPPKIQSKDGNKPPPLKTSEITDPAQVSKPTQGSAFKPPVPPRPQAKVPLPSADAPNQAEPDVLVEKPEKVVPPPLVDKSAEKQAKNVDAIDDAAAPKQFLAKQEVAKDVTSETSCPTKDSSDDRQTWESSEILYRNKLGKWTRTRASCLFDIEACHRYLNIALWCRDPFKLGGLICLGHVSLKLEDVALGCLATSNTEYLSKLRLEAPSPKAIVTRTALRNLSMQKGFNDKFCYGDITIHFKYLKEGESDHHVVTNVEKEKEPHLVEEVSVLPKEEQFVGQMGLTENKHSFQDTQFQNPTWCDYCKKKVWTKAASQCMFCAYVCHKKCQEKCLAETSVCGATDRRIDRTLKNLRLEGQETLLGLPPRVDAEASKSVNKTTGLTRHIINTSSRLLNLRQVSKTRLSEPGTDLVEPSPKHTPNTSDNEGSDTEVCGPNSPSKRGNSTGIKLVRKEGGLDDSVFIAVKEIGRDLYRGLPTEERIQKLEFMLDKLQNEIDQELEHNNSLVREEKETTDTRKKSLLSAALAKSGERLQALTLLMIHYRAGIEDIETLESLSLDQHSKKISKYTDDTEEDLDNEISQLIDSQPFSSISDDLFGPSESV
UniProt Q8NEB9, whole entry: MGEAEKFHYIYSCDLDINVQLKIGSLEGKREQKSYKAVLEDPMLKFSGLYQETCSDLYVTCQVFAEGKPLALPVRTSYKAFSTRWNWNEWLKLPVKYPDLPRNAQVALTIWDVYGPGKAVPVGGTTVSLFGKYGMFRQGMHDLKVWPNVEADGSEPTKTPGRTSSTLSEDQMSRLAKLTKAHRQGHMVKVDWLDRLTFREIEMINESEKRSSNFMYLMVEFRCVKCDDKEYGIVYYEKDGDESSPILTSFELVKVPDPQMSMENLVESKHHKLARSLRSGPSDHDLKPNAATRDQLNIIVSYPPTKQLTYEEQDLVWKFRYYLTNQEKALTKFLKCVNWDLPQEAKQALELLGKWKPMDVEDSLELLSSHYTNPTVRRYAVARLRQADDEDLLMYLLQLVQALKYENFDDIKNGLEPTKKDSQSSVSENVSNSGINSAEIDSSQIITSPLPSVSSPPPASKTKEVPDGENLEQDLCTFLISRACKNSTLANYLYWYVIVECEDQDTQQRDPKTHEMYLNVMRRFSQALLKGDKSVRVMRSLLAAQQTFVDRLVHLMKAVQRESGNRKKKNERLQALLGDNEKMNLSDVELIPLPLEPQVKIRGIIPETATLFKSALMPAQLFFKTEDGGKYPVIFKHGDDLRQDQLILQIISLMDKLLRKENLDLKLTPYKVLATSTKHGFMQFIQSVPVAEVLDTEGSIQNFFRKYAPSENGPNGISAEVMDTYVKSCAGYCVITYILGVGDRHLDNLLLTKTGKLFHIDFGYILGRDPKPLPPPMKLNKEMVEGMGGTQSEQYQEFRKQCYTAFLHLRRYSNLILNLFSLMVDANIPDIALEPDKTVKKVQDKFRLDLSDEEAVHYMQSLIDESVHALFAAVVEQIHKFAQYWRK
UniProt Q8NEV1, whole entry, looked up: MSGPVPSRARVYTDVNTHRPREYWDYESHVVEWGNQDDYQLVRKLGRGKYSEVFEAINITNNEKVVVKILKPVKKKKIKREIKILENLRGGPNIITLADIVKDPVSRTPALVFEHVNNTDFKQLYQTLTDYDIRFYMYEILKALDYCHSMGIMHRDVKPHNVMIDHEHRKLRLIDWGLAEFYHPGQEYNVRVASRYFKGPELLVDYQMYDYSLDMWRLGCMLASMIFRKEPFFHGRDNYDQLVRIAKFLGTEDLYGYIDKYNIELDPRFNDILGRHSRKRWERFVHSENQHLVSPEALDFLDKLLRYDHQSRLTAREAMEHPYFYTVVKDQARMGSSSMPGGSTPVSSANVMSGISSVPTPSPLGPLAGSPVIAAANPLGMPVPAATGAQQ
UniProt Q8NG06: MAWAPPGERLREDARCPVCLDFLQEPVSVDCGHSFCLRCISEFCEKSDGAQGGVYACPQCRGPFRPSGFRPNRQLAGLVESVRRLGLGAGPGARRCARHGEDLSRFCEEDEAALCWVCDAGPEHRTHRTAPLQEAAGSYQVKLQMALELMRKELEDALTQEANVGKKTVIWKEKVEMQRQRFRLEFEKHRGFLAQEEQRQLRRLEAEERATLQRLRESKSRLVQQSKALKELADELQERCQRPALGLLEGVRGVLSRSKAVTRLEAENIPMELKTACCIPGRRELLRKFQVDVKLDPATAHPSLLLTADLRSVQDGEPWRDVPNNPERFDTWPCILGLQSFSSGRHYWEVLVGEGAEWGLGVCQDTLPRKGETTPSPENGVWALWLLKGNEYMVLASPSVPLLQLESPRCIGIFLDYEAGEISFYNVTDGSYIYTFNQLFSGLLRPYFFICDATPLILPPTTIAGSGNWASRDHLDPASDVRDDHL
UniProt Q8NBJ7: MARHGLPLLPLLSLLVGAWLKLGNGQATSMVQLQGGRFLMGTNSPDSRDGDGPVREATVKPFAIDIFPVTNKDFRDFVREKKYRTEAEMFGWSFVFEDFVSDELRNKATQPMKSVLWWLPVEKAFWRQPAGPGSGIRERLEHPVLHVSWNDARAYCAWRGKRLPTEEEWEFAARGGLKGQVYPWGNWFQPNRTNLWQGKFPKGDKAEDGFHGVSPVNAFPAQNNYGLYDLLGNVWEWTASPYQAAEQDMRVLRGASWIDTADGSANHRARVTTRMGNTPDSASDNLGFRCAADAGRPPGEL

This is one part of the list. Small differences around the control level are noise.

Compound in this test: Cc1nc(Nc2ncc(C(=O)Nc3c(C)cccc3Cl)s2)cc(N2CCN(CCO)CC2)n1 [dasatinib]
Kind of test: log2 fold change of tryptic peptide abundance, ligand vs vehicle (limited proteolysis) (log2 ratio); higher = more trypsin-susceptible (destabilized). The settings on record: ligand concentration: 5 uM; sample: K562 cleared lysate.
On to “UniProt Q8NDB6 (peptide sequence: HRDHMAPYAVGR, peptide start residue: 98)”, for which the log2 fold change is -0.52.
Take “ZNF740 (peptide sequence: NFVCEHCFGAFR, peptide start residue: 100) (UniProt Q8NDX6)”: the log2 fold change stood at 0.213.
Then “UniProt Q8NA31 (peptide sequence: KSLICNKK, peptide start residue: 637)”, with 0.67.
To “TET1 (peptide sequence: KKPSVVVPLEVIK, peptide start residue: 629) (UniProt Q8NFU7)” belongs -0.562; to “LEMD2 (peptide sequence: LREDAPLR, peptide start residue: 68) (UniProt Q8NC56)”, -0.602; to “WDR36 (peptide sequence: VVNLGVLAQK, peptide start residue: 815) (UniProt Q8NI36)”, 0.432.
Turning to “PDZD8 (peptide sequence: KEGGLDDSVFIAVK, peptide start residue: 1004) (UniProt Q8NEN9)”, the log2 fold change is -0.346.
To “UniProt Q8NEB9 (peptide sequence: NGLEPTKK, peptide start residue: 413)” belongs 0.293; to “UniProt Q8NEV1 (peptide sequence: ARVYTDVNTHRPR, peptide start residue: 9)”, -0.25.
Regarding “TRIM58 (peptide sequence: KELEDALTQEANVGK, peptide start residue: 152) (UniProt Q8NG06)”, the log2 fold change was -0.97.
As to “SUMF2 (peptide sequence: ERLEHPVLHVSWNDAR, peptide start residue: 138) (UniProt Q8NBJ7)”, the log2 fold change is -0.489.
